Test results taken from the supplement of paper PMC4604168 (melanoma cell lines).
This is one part of the list. Many values rest on one well or one pass, so single values are uncertain.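 Imaging used 1,536-well plates; nuclei positive for cleaved PARP by antibody were divided by total DNA-stained nuclei to yield the apoptosis fraction. Doses for screening kept most cells viable, and cell lines differ markedly in resting and induced cleaved-PARP levels.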

Tests used:
Experiment in all cases: cleaved PARP positive nuclei fraction relative to DMSO control; melanoma cells; higher = more apoptosis
Conditions in all cases: library dose: low library concentration; 72 h
[1] = system: 501Mel
[2] = system: A101D
[3] = system: A2058
[4] = system: C32
[5] = system: CBRC008 (line from a melanoma biopsy)
[6] = system: CBRC014 (line from a melanoma biopsy)
[7] = system: CBRC016 (line from a melanoma biopsy)
[8] = system: CBRC017 (line from a melanoma biopsy)
[9] = system: COLO792
[10] = system: COLO800
[11] = system: COLO829
[12] = system: G361
[13] = system: IPC-298
[14] = system: IST-MEL1
[15] = system: LB2518-MEL
[16] = system: LOXIMVI
[17] = system: A375
[18] = system: CBRC034 (line from a melanoma biopsy)
[19] = system: MEL-HO
[20] = system: CBRC013 (line from a melanoma biopsy)

Row | Compound | cleaved PARP positive nuclei fraction [1] [%] | cleaved PARP positive nuclei fraction [2] [%] | cleaved PARP positive nuclei fraction [3] [%] | cleaved PARP positive nuclei fraction [4] [%] | cleaved PARP positive nuclei fraction [5] [%] | cleaved PARP positive nuclei fraction [6] [%] | cleaved PARP positive nuclei fraction [7] [%] | cleaved PARP positive nuclei fraction [8] [%] | cleaved PARP positive nuclei fraction [9] [%] | cleaved PARP positive nuclei fraction [10] [%] | cleaved PARP positive nuclei fraction [11] [%] | cleaved PARP positive nuclei fraction [12] [%] | cleaved PARP positive nuclei fraction [13] [%] | cleaved PARP positive nuclei fraction [14] [%] | cleaved PARP positive nuclei fraction [15] [%] | cleaved PARP positive nuclei fraction [16] [%] | cleaved PARP positive nuclei fraction [17] [%] | cleaved PARP positive nuclei fraction [18] [%] | cleaved PARP positive nuclei fraction [19] [%] | cleaved PARP positive nuclei fraction [20] [%]
1 | Cc1ccc(Nc2nccc(N(C)c3ccc4c(C)n(C)nc4c3)n2)cc1S(N)(=O)=O [Pazopanib] + O=C1NC(=O)/C(=C/c2ccc(-c3ccc(F)cc3O)o2)S1 [AS252424] (first compound 0.4 µM, partner dose 1 µM) | 83 | 11.5 | 73.8 | 106 | 264 | 101 | 38.1 | 185 | 171 | 39.2 | 54.6 | 49.5 | 119 | 186 | 95.2 | 158 | – | – | – | –
2 | Cc1cc(Nc2cc(N3CCN(C)CC3)nc(Sc3ccc(NC(=O)C4CC4)cc3)n2)n[nH]1 [Tozasertib] + COc1cc(N2CCC(N3CCN(C)CC3)CC2)ccc1Nc1ncc(Cl)c(Nc2ccccc2S(=O)(=O)C(C)C)n1 [NVP-TAE684] (first compound 0.006 µM, partner dose 0.08 µM) | 45.4 | 40.5 | 40.9 | 41.8 | 70.4 | 84.6 | 33.6 | 62.7 | 112 | 97 | 72.3 | 120 | 48.9 | 83.1 | 81 | 92.1 | – | – | – | –
3 | CC[C@]1(O)C[C@H]2CN(CCc3c([nH]c4ccccc34)[C@@](C(=O)OC)(c3cc4c(cc3OC)N(C=O)[C@H]3[C@@](O)(C(=O)OC)[C@H](OC(C)=O)[C@]5(CC)C=CCN6CC[C@]43[C@@H]65)C2)C1 [vincristine] + CCCCCCCCCCCC1=C(O)C(=O)C=C(O)C1=O [Embelin] (first compound 0.0001 µM, partner dose 1.2 µM) | 80.6 | 1370 | 315 | 410 | 311 | 114 | 85.1 | 118 | 117 | 164 | 170 | 102 | 91.5 | 76.5 | 70 | 136 | – | – | – | –
4 | CCCCCCCCCCCCCCCCCCOP(=O)([O-])OC1CC[N+](C)(C)CC1 [Perifosine] + CO[C@H]1C[C@@H]2CC[C@@H](C)[C@@](O)(O2)C(=O)C(=O)N2CCCC[C@H]2C(=O)O[C@H]([C@H](C)C[C@@H]2CC[C@@H](OCCO)[C@H](OC)C2)CC(=O)[C@H](C)/C=C(\C)[C@@H](O)[C@@H](OC)C(=O)[C@H](C)C[C@H](C)/C=C/C=C/C=C/1C [everolimus] (first compound 0.4 µM, partner dose 0.02 µM) | – | 43.9 | 82.2 | 91.6 | 66 | 213 | 80 | 93.5 | 187 | 98.1 | 72.2 | 52.7 | 113 | 132 | – | 69.2 | 594 | 69.6 | 67.7 | –
5 | O=C(Nc1cc(C(F)(F)F)cc(C(F)(F)F)c1)c1cc(Cl)ccc1O + O=S(=O)(c1ccccc1)N(CC(F)(F)F)c1ccc(C(O)(C(F)(F)F)C(F)(F)F)cc1 [T0901317] (first compound 0.016 µM, partner dose 1.4 µM) | 85.5 | 26.4 | 123 | 80.2 | 124 | 127 | 52.3 | 459 | 86.2 | 139 | 128 | 87.8 | 156 | 119 | 67.8 | 166 | – | – | – | –
6 | O=C(Nc1cc(C(F)(F)F)cc(C(F)(F)F)c1)c1cc(Cl)ccc1O + Oc1cc(-c2nc(-c3ccccc3)[nH]c2-c2ccncc2)ccc1Cl [L779450] (first compound 0.016 µM, partner dose 0.2 µM) | 93 | 50.4 | 40.4 | 61.1 | 169 | 104 | 104 | 83 | 210 | 153 | 97.3 | 171 | 85.2 | 148 | 81.9 | 45 | – | – | – | –
7 | CCCCCCCCCCCCCCCCCCOP(=O)([O-])OC1CC[N+](C)(C)CC1 [Perifosine] + Cn1cncc1[C@@](N)(c1ccc(Cl)cc1)c1ccc2c(c1)c(-c1cccc(Cl)c1)cc(=O)n2C [tipifarnib] (first compound 0.4 µM, partner dose 0.01 µM) | – | 86.8 | 40.2 | 17.1 | 215 | 112 | 237 | 231 | 85.6 | 37.7 | 96.5 | 167 | 102 | 140 | – | 136 | 1760 | – | 73.5 | 175
8 | COc1cc([C@@H]2c3cc4c(cc3[C@@H](O[C@@H]3O[C@@H]5CO[C@@H](C)O[C@H]5[C@H](O)[C@H]3O)[C@H]3COC(=O)[C@H]23)OCO4)cc(OC)c1O [etoposide] + COc1ccc2c(c1)CCC1C2CCC2(C)C(NCCCCCCN3C(=O)C=CC3=O)CCC12 [U73122] (first compound 0.02 µM, partner dose 0.4 µM) | 57.7 | 14.3 | 98.2 | 42.5 | 90.3 | 214 | 134 | 96.6 | 104 | 168 | – | 82.2 | 184 | 74.3 | 160 | 148 | – | – | – | –
9 | CC[C@]1(O)C[C@H]2CN(CCc3c([nH]c4ccccc34)[C@@](C(=O)OC)(c3cc4c(cc3OC)N(C=O)[C@H]3[C@@](O)(C(=O)OC)[C@H](OC(C)=O)[C@]5(CC)C=CCN6CC[C@]43[C@@H]65)C2)C1 [vincristine] + COc1cc(N2CCC(N3CCN(C)CC3)CC2)ccc1Nc1ncc(Cl)c(Nc2ccccc2S(=O)(=O)C(C)C)n1 [NVP-TAE684] (first compound 0.0001 µM, partner dose 0.08 µM) | 65 | 59.1 | 1700 | 155 | 288 | 218 | 68.3 | 104 | 108 | 107 | 165 | 86.1 | 85.9 | 166 | 129 | 90.5 | – | – | – | –
10 | COc1cc([C@@H]2c3cc4c(cc3[C@@H](O[C@@H]3O[C@@H]5CO[C@@H](C)O[C@H]5[C@H](O)[C@H]3O)[C@H]3COC(=O)[C@H]23)OCO4)cc(OC)c1O [etoposide] + O=C(Nc1ccccc1)c1cc([N+](=O)[O-])ccc1Cl [GW9662] (first compound 0.02 µM, partner dose 2 µM) | 134 | 20.3 | 101 | 90 | 65.6 | 96.4 | 47.7 | 87.7 | 57 | 127 | 63.3 | – | 51.1 | 143 | 77 | 131 | – | – | – | –
11 | COc1cc([C@@H]2c3cc4c(cc3[C@@H](O[C@@H]3O[C@@H]5CO[C@@H](C)O[C@H]5[C@H](O)[C@H]3O)[C@H]3COC(=O)[C@H]23)OCO4)cc(OC)c1O [etoposide] + O=C(Nc1cc(C(F)(F)F)cc(C(F)(F)F)c1)c1cc(Cl)ccc1O [IMD0354] (first compound 0.02 µM, partner dose 0.016 µM) | – | 45.3 | 135 | 181 | 127 | 87.5 | 184 | 94 | 164 | 68.2 | 66.2 | 98.2 | 60.8 | 121 | 55.1 | 365 | 296 | 44.3 | 28.7 | –
12 | COc1cc([C@@H]2c3cc4c(cc3[C@@H](O[C@@H]3O[C@@H]5CO[C@@H](C)O[C@H]5[C@H](O)[C@H]3O)[C@H]3COC(=O)[C@H]23)OCO4)cc(OC)c1O [etoposide] + CCCS(=O)(=O)Nc1ccc(F)c(C(=O)c2c[nH]c3ncc(Cl)cc23)c1F [PLX4720] (first compound 0.02 µM, partner dose 0.08 µM) | – | 62.1 | 37.4 | 85.3 | 60.6 | 106 | 113 | 101 | 140 | 93.5 | 65.8 | 165 | 97.6 | 59.2 | – | 112 | 203 | 26.3 | 43.2 | –
13 | O=c1[nH]nc(Sc2ncc([N+](=O)[O-])s2)n1-c1ccc2c(c1)OCCO2 + Cc1cc([N+](=O)[O-])ccc1NS(=O)(=O)c1cc(Cl)ccc1Cl [FH535] (first compound 0.2 µM, partner dose 1 µM) | – | 43.5 | 96.7 | 49.1 | 411 | 124 | 170 | 142 | 117 | 31.9 | 66.7 | 111 | 94 | 97.7 | – | 70.8 | – | – | – | –
14 | Cc1cc(Nc2cc(N3CCN(C)CC3)nc(Sc3ccc(NC(=O)C4CC4)cc3)n2)n[nH]1 [Tozasertib] + Cc1cc([N+](=O)[O-])ccc1NS(=O)(=O)c1cc(Cl)ccc1Cl [FH535] (first compound 0.006 µM, partner dose 1 µM) | – | 10.7 | 101 | 169 | 488 | 154 | 335 | 356 | 65.6 | 75.6 | 99.1 | 83.4 | 153 | 43.8 | – | 105 | – | – | – | –
15 | CC[C@]1(O)C[C@H]2CN(CCc3c([nH]c4ccccc34)[C@@](C(=O)OC)(c3cc4c(cc3OC)N(C=O)[C@H]3[C@@](O)(C(=O)OC)[C@H](OC(C)=O)[C@]5(CC)C=CCN6CC[C@]43[C@@H]65)C2)C1 [vincristine] + C=C(c1ccc(C(=O)O)cc1)c1cc2c(cc1C)C(C)(C)CCC2(C)C [Bexarotene] (first compound 0.0001 µM, partner dose 2 µM) | – | 247 | 381 | 94 | 116 | 111 | 38.9 | 108 | 144 | 140 | 94.6 | 37.2 | 85 | 59.9 | – | 118 | 320 | 94.6 | 69.3 | –
16 | O=C(/C=C/c1cccnc1)NCCCCC1CCN(C(=O)c2ccccc2)CC1 + C#Cc1cccc(Nc2ncnc3cc(OCCOC)c(OCCOC)cc23)c1 [erlotinib] (first compound 0.01 µM, partner dose 0.8 µM) | – | 73.4 | 115 | 69.3 | 1960 | 117 | 827 | 706 | 452 | 208 | 114 | 4260 | 2200 | 211 | – | 203 | 224 | 1310 | 140 | –

Two records picked at random from the list so far, as already listed:
Row | Compound | cleaved PARP positive nuclei fraction [1] [%] | cleaved PARP positive nuclei fraction [2] [%] | cleaved PARP positive nuclei fraction [3] [%] | cleaved PARP positive nuclei fraction [4] [%] | cleaved PARP positive nuclei fraction [5] [%] | cleaved PARP positive nuclei fraction [6] [%] | cleaved PARP positive nuclei fraction [7] [%] | cleaved PARP positive nuclei fraction [8] [%] | cleaved PARP positive nuclei fraction [9] [%] | cleaved PARP positive nuclei fraction [10] [%] | cleaved PARP positive nuclei fraction [11] [%] | cleaved PARP positive nuclei fraction [12] [%] | cleaved PARP positive nuclei fraction [13] [%] | cleaved PARP positive nuclei fraction [14] [%] | cleaved PARP positive nuclei fraction [15] [%] | cleaved PARP positive nuclei fraction [16] [%] | cleaved PARP positive nuclei fraction [17] [%] | cleaved PARP positive nuclei fraction [18] [%] | cleaved PARP positive nuclei fraction [19] [%] | cleaved PARP positive nuclei fraction [20] [%]
8 | COc1cc([C@@H]2c3cc4c(cc3[C@@H](O[C@@H]3O[C@@H]5CO[C@@H](C)O[C@H]5[C@H](O)[C@H]3O)[C@H]3COC(=O)[C@H]23)OCO4)cc(OC)c1O [etoposide] + COc1ccc2c(c1)CCC1C2CCC2(C)C(NCCCCCCN3C(=O)C=CC3=O)CCC12 [U73122] (first compound 0.02 µM, partner dose 0.4 µM) | 57.7 | 14.3 | 98.2 | 42.5 | 90.3 | 214 | 134 | 96.6 | 104 | 168 | – | 82.2 | 184 | 74.3 | 160 | 148 | – | – | – | –
12 | COc1cc([C@@H]2c3cc4c(cc3[C@@H](O[C@@H]3O[C@@H]5CO[C@@H](C)O[C@H]5[C@H](O)[C@H]3O)[C@H]3COC(=O)[C@H]23)OCO4)cc(OC)c1O [etoposide] + CCCS(=O)(=O)Nc1ccc(F)c(C(=O)c2c[nH]c3ncc(Cl)cc23)c1F [PLX4720] (first compound 0.02 µM, partner dose 0.08 µM) | – | 62.1 | 37.4 | 85.3 | 60.6 | 106 | 113 | 101 | 140 | 93.5 | 65.8 | 165 | 97.6 | 59.2 | – | 112 | 203 | 26.3 | 43.2 | –
